5 molecules from publication PMC11341912 can be followed below.

Amino acid sequences for entries named in this document (tags omitted).
UniProt P09874: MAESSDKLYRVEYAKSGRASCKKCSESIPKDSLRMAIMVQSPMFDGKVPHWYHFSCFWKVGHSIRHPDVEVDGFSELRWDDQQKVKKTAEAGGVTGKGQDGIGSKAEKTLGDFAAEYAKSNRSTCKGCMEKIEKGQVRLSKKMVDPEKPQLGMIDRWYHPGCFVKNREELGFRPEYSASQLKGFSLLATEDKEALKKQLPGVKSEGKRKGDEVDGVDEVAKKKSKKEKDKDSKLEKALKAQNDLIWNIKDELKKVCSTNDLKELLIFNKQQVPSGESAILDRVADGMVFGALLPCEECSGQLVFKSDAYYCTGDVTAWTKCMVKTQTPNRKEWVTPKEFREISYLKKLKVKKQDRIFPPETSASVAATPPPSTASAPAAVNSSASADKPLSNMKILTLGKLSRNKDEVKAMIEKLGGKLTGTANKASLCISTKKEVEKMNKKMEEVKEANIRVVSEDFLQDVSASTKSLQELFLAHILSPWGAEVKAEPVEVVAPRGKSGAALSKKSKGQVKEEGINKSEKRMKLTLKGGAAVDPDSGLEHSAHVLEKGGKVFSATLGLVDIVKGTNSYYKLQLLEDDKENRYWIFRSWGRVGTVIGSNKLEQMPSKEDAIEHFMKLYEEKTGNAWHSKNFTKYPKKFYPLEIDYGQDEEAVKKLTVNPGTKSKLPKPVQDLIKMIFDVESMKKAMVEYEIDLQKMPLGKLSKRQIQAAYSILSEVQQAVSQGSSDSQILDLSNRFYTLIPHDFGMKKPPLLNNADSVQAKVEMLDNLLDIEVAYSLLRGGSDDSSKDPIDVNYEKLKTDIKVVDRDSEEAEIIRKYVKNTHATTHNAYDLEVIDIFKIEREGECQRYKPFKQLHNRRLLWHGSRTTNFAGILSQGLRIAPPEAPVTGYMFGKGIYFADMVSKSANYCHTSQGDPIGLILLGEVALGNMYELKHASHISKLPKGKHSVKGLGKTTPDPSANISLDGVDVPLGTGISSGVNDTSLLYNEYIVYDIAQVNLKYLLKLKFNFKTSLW
UniProt P16402: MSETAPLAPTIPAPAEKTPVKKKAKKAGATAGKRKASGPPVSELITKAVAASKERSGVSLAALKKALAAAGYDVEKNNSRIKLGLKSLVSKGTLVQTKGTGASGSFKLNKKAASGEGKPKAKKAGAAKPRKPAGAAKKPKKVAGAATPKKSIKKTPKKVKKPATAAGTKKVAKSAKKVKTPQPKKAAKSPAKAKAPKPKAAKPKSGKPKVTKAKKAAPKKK
UniProt Q9ULW0: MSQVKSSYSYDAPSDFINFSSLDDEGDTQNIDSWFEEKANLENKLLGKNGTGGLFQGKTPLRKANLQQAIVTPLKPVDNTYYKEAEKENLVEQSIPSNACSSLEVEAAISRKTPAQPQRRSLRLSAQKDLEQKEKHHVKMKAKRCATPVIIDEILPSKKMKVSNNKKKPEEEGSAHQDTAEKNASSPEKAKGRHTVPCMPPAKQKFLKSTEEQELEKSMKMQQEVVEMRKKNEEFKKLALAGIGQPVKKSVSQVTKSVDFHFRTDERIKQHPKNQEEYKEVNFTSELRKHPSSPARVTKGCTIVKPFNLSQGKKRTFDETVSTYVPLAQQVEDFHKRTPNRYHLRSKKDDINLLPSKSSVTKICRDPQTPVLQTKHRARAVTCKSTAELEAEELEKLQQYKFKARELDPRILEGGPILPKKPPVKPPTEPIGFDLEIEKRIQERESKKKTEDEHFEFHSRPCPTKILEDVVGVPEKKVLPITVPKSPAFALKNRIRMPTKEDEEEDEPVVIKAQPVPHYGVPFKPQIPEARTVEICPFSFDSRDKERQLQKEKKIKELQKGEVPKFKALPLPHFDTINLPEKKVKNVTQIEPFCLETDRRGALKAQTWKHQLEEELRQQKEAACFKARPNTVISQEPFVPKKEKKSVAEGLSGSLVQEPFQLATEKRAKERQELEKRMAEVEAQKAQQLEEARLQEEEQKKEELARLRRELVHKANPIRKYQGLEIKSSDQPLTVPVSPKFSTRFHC
UniProt P17028: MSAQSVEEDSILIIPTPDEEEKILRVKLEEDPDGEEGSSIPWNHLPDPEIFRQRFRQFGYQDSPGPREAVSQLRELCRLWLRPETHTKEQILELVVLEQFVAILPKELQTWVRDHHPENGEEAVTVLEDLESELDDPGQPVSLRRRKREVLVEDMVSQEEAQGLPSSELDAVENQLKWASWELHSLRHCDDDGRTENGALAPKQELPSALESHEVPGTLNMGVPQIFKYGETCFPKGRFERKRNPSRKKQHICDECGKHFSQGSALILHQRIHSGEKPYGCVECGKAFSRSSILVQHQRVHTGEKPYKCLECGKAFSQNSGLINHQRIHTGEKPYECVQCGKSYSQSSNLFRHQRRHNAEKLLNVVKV

Results are given in words; binding and its absence hold for the method and conditions named. In cells and extracts the contact can be indirect. These calls come from enrichment with a bait or labelling near it, and not all partners need be listed.

B1: endogenous PINX1 (protein, UniProt Q96BK5 1-328)
chain: MSMLAERRRKQKWAVDPQNTAWSNDDSKFGQRMLEKMGWSKGKGLGAQEQGATDHIKVQVKNNHLGLGATINNEDNWIAHQDDFNQLLAELNTCHGQETTDSSDKKEKKSFSLEEKSKISKNRVHYMKFTKGKDLSSRSKTDLDCIFGKRQSKKTPEGDASPSTPEENETTTTSAFTIQEYFAKRMAALKNKPQVPVPGSDISETQVERKRGKKRNKEATGKDVESYLQPKAKRHTEGKPERAEAQERVAKKKSAPAEEQLRGPCWDQSSKASAQDAGDHVQPPEGRDFTLKPKKRRGKKKLQKPVEIAEDATLEETLVKKKKKKDSK
B2: endogenous UTP14A (protein, UniProt Q9BVJ6 1-771)
chain: MTANRLAESLLALSQQEELADLPKDYLLSESEDEGDNDGERKHQKLLEAISSLDGKNRRKLAERSEASLKVSEFNVSSEGSGEKLVLADLLEPVKTSSSLATVKKQLSRVKSKKTVELPLNKEEIERIHREVAFNKTAQVLSKWDPVVLKNRQAEQLVFPLEKEEPAIAPIEHVLSGWKARTPLEQEIFNLLHKNKQPVTDPLLTPVEKASLRAMSLEEAKMRRAELQRARALQSYYEAKARREKKIKSKKYHKVVKKGKAKKALKEFEQLRKVNPAAALEELEKIEKARMMERMSLKHQNSGKWAKSKAIMAKYDLEARQAMQEQLSKNKELTQKLQVASESEEEEGGTEDVEELLVPDVVNEVQMNADGPNPWMLRSCTSDTKEAATQEDPEQLPELEAHGVSESEGEERPVAEEEILLREFEERRSLRKRSELSQDAEPAGSQETKDSGSQEVLSELRVLSQKLKENHQSRKQKASSEGTIPQVQREEPAPEEEEPLLLQRPERVQTLEELEELGKEECFQNKELPRPVLEGQQSERTPNNRPDAPKEKKKKEQMIDLQNLLTTQSPSVKSLAVPTIEELEDEEERNHRQMIKEAFAGDDVIRDFLKEKREAVEASKPKDVDLTLPGWGEWGGVGLKPSAKKRRRFLIKAPEGPPRKDKNLPNVIINEKRNIHAAAHQVRVLPYPFTHHWQFERTIQTPIGSTWNTQRAFQKLTTPKVVTKPGHIINPIKAEDVGYRSSSRSDLSVIQRNPKRITTRHKKQLKKCSVD

This assay addresses full-length PARP1 tagged on the C-terminus with TurboID (UniProt P09874). In words: proximity labelling; PARP1-TurboID transiently expressed in cells, 500 μM biotin for 10 min at 37 °C; streptavidin beads under denaturing conditions (8 M urea), mass spectrometry; controls TurboID alone and no biotin.
In the case of HIST1H1D (from UniProt P16402 1-221), the binding result was “binds”.

Turning to TPX2 (from UniProt Q9ULW0 1-747), the binding result was “binds”. With “endogenous ZNF24 (from UniProt P17028 1-368)”, the binding entry is “binds”.

For B1, the binding result was “binds”. Regarding B2, the binding entry is “binds”.
